Data on six compounds can be found in patent publication US5219866A, “Octadecyl-[2-(N-methylpiperidino)-ethyl]-phosphate and a process for its preparation” (Asta Medica AG, priority 1991, dated 1993).

Some results come without the dose or concentration used.

In this data set the test system is human KB tumor cell line. Description: Cape-Index (WHI in vivo divided by EC90 in vitro). The settings on record: higher = more selective and effective.
`CCCCCCCCCCCCCCCCCCOP(=O)([O-])OCC[N+]1(C)CCCCCC1` [D20918]: the Cape-Index is on record as 0.

`CCCCCCCCCCCCCCCCCCOP(=O)([O-])OCC[N+](C)(C)C` [D 19391] registered a Cape-Index of 36. Compound `CCCCCCCCCCCCCCCCCCOP(=O)([O-])OCC[n+]1ccccc1` [D 19862] came in with a Cape-Index of 0.

Consider `CCCCCCCCCCCCCCCCCCOP(=O)([O-])OCC[N+]1(C)CCCCC1` [D 20133, Octadecyl-[2-(N-methylpiperidino)-ethyl]-phosphate], for which the Cape-Index turned out to be 403. For the compound `CCCCCCCCCCCCCCCCCCOP(=O)([O-])OCC[N+]1(C)CCOCC1` [D 20680], the Cape-Index amounted to 0. In turn, `CCCCCCCCCCCCCCCCCCOP(=O)([O-])OCC[N+]1(CC)CCCCC1` [D 20931] displayed a Cape-Index of 13.
